Data set [1] concerns the target MORC2 phosphorylated (wild-type) (Homo sapiens) (UniProt Q9Y6X9). Description: fluorescence anisotropy. The conditions noted are these: apo; FA/EMSA: 50 mM NaCl, 3 mM MgCl2, 20 mM Na-HEPES pH 7.4, 1 mM TCEP, 10% glycerol, 0.025 mM ZnCl2, 50 ug/ml BSA, room temperature; recombinant protein; residues 1-1032; protein details: tag removed by TEV; label: 5'-6-FAM.
The target of data set [2] is T1, MORC2 dephosphorylated (wild-type) (Homo sapiens) (UniProt Q9Y6X9).
T1 sequence (looked up): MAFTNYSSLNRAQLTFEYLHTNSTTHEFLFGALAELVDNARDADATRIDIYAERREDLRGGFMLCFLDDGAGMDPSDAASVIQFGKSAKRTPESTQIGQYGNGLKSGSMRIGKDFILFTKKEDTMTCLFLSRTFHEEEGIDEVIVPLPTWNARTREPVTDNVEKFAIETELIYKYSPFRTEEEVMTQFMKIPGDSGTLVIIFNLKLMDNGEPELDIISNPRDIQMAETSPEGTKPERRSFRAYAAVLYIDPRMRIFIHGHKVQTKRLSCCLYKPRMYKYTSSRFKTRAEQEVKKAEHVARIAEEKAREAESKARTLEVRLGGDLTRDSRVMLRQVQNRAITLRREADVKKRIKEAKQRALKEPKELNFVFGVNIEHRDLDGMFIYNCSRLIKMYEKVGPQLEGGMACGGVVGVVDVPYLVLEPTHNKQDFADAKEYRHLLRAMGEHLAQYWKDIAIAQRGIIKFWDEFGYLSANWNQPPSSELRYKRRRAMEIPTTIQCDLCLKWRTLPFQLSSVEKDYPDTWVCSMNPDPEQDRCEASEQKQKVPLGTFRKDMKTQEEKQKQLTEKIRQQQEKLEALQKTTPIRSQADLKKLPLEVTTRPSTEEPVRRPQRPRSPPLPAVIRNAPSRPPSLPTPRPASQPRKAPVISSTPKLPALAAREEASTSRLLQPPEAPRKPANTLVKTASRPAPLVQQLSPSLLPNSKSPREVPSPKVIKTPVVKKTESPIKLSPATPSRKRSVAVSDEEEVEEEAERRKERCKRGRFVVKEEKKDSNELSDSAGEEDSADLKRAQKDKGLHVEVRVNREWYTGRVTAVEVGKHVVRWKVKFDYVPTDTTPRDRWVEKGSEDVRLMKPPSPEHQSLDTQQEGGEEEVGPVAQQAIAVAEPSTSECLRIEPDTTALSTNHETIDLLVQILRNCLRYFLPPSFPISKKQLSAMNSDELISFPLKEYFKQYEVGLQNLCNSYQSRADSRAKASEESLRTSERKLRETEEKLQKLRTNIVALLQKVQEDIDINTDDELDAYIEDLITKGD
Briefly: fluorescence anisotropy. To be noted: FA/EMSA: 50 mM NaCl, 3 mM MgCl2, 20 mM Na-HEPES pH 7.4, 1 mM TCEP, 10% glycerol, 0.025 mM ZnCl2, 50 ug/ml BSA, room temperature, recombinant protein, residues 1-1032, protein details: tag removed by TEV, label: 5'-6-FAM; for binding result: value not in material.

pKd: −log10 of the molar value. For at least one entry, the source does not settle the construct or the ends of the probe. For part of these data: The comparison behind a weaker result is the experiment's own reference, which may not be listed here. For part of these data: Where a protein sequence is shown, tags need not be part of it. For part of these data: At least one verdict was read from the data and is not stated in words by the source.

For the sequence “ATAGGGTCCATCAGAATTCGGATGAACTCGGTGTG (double strand) [Random 35mer dsDNA]”, the negative-log Kd (pKd) is 6.55 in data set [1], 7.44 in data set [2] (1 mM ADP), 7.52 in data set [2] (1 mM AMP-PNP) and 7.07 in data set [2] (1 mM ATP). In addition, in data set [2] (1 mM ATPgS, largest reduction), the binding result is on record as “binds more weakly”.
As for “TGTGTGCGCACCGTGCGCGAGCCGAAGCAGGGCGA (double strand) [High GC 35mer dsDNA]”, in data set [2] (apo), the binding result is listed as “binds”.

The values above are taken from PMC11879086, “Identification and characterization of a human MORC2 DNA binding region that is required for gene silencing” (Nucleic Acids Research, 2024).
